Binding screen against folded nucleic acids

Calls as published in the ROBIN set (doi:10.1002/anie.202211358).

Oligonucleotides screened, 5′ to 3′:
PreQ1: PreQ1 riboswitch RNA pseudoknot, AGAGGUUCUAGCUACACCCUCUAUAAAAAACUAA. From B. subtilis. About 24,000 compounds screened, about 170 hits.
SAM-II: SAM-II riboswitch RNA pseudoknot, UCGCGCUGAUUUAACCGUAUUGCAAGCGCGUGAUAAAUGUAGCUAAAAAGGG. About 21,000 compounds screened, about 200 hits.
TPP: TPP riboswitch RNA three-way junction, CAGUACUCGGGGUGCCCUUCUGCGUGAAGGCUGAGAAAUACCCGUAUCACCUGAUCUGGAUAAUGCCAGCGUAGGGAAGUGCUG. About 24,000 compounds screened, about 160 hits.

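Each compound is printed as two spots on a slide made to bind it covalently, so it has no test concentration; the read-out is fluorescence of the bound, labelled oligonucleotide. The data file lists only calls. An earlier report of the laboratory on the PreQ1, TPP and SAM-II riboswitches (doi:10.1038/s41467-019-09493-3) used 1 µM RNA for 2 h and required a mean Z-score above 3 (spot signal-to-noise against the whole library), a score well above that on a control array, and duplicate spots agreeing (coefficient of variation under 100); it then also set aside compounds that hit other targets, which this list keeps. The cut-offs behind this list may differ. The calls come from the array alone, and fixing a compound to the slide can hide its binding.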
Key: hit = hit, no hit = tested without a hit.
This is an unselected part of the compounds tested.
A target missing from an entry has no call listed here.

- OCCCN=Cc1ccc(Cl)cc1Cl : PreQ1: no hit; SAM-II: no hit; TPP: no hit
- Nc1ccccc1C(=O)N1CCN(C(=O)c2ccccc2)CC1 : PreQ1: no hit; SAM-II: no hit; TPP: no hit
- C=C1c2cccc(O)c2C(O)=C2C(=O)[C@@]3(O)C(O)=C(C(N)=O)C(=O)[C@@H](N(C)C)[C@@H]3[C@@H](O)[C@H]12 : PreQ1: no hit; SAM-II: no hit; TPP: no hit
- CC(NC1CSCCSC1)c1nc(-c2ccccn2)no1 (centres unmarked) : PreQ1: no hit; SAM-II: no hit; TPP: no hit
- CCNc1sc2c(O)cc(=O)[nH]c2c1C(N)=O : PreQ1: no hit; SAM-II: no hit; TPP: no hit
- CC(C)(C)c1[nH]nc2c1C(c1ccc(Cl)cc1)C(C#N)=C(N)O2 (centres unmarked) : PreQ1: no hit; SAM-II: no hit; TPP: no hit
- COc1ccc(-c2cc3nc(C)cc(NCc4ccccn4)n3n2)cc1OC : PreQ1: no hit; TPP: no hit
- O=C(Nc1ccc(Oc2ccc(NC(=O)Nc3ccccc3Cl)cc2)cc1)Nc1ccccc1Cl : PreQ1: no hit; SAM-II: no hit; TPP: no hit
- CC(=O)c1cccc(Nc2cc(C)nc3nc(Cc4ccccc4)nn23)c1 : PreQ1: no hit; TPP: no hit
- Cc1ccc(Cn2nnc(C(=O)Nc3cc(C)ccc3C)c2N)cc1 : PreQ1: no hit; SAM-II: no hit; TPP: no hit
- COc1ccc(-c2nn3c(NC4CCCCC4)cc(C)nc3c2C)cc1OC : PreQ1: no hit; TPP: no hit
- CC1(C)CC(=O)c2sc(Nc3ccccc3Cl)nc2C1 : PreQ1: no hit; SAM-II: no hit; TPP: no hit
- Cc1nc(-c2ccc(OCC(C)C)c(C#N)c2)sc1C(=O)O : PreQ1: no hit; SAM-II: no hit; TPP: no hit
- O=C(CCSc1nnc(-c2ccncc2)o1)N1CCOCC(O)C1 (centres unmarked) : PreQ1: no hit; SAM-II: no hit; TPP: no hit
- CCCCc1nc(-c2c(-c3ccccc3)ncn2CC2(CO)CCC2)c[nH]1 : PreQ1: no hit; SAM-II: no hit; TPP: no hit
- Cc1ccc(C2NC(=O)N(C)C3=C2C(=O)N(CCO)C3)cc1 (centres unmarked) : PreQ1: no hit; SAM-II: no hit; TPP: no hit
- COc1c(N)c2c(c(OC)c1OC)COC2=O : PreQ1: no hit; SAM-II: no hit; TPP: no hit
- CC12CN3CN(C1)CC(C)(C3)C2N (centres unmarked) : PreQ1: no hit; SAM-II: no hit; TPP: no hit
- Cc1ccc(NC(=O)c2nccnc2CO)cc1F : PreQ1: no hit; SAM-II: no hit; TPP: no hit
- CC(C)c1nc(CNC(=O)c2ccc(-c3ccc(CO)cc3)nc2)no1 : PreQ1: no hit; SAM-II: no hit; TPP: no hit
- C[C@@H]1O[C@@H](O[C@H]2C[C@@H](O)[C@]3(CO)[C@H]4[C@H](O)C[C@]5(C)[C@@H](C6=CC(=O)OC6)CC[C@]5(O)[C@H]4CC[C@]3(O)C2)[C@H](O)[C@H](O)[C@@H]1O : PreQ1: no hit; SAM-II: no hit; TPP: no hit
- N=c1c2c(-c3ccccc3)c(-c3ccccc3)n(Cc3ccco3)c2ncn1CCCO : PreQ1: no hit; SAM-II: no hit; TPP: no hit
- CCOC(=O)C1CCN(c2c(NCCCc3ccccc3)c(=O)c2=O)CC1 : PreQ1: no hit; SAM-II: no hit; TPP: no hit
- O=c1[nH]c2ccc(S(=O)(=O)N3CC[C@H]4CC[C@@H](C3)N4)cc2[nH]c1=O : PreQ1: no hit; SAM-II: no hit; TPP: no hit
- Cn1c(=O)n(C)c2cc(S(=O)(=O)NCC3(O)CCCNCC3)ccc21 (centres unmarked) : PreQ1: no hit; SAM-II: no hit; TPP: no hit
- CCCSc1nc2c(c(=O)n(C)c(=O)n2C)n1C : PreQ1: no hit; SAM-II: no hit; TPP: no hit
- COC(=O)c1ccc(OCC(O)CN2C(=O)NC(C)(C)C2=O)cc1 (centres unmarked) : PreQ1: no hit; SAM-II: no hit; TPP: no hit
- CC(O)CNc1c[nH]c(=O)[nH]c1=O (centres unmarked) : PreQ1: no hit; SAM-II: no hit; TPP: no hit
- CNc1c(NS(=O)(=O)c2cc(OC)ccc2OC)c(=O)oc2ccccc12 : PreQ1: no hit; SAM-II: no hit; TPP: no hit
- Cc1cnn(CC2CCN(C(=O)c3ccccc3C3CCNC3)CC2)c1 (centres unmarked) : PreQ1: no hit; SAM-II: no hit; TPP: no hit